Experimental data: article PMC9960896
These are yes or no findings as the source states them, for the method shown. In cells and extracts the contact can be indirect. Some entries that bind do so weakly or less than the wild type. Sequences can lack the tags named with a protein.

By UniProt entry, the sequences of proteins in these tests, tags left out.
UniProt P37238: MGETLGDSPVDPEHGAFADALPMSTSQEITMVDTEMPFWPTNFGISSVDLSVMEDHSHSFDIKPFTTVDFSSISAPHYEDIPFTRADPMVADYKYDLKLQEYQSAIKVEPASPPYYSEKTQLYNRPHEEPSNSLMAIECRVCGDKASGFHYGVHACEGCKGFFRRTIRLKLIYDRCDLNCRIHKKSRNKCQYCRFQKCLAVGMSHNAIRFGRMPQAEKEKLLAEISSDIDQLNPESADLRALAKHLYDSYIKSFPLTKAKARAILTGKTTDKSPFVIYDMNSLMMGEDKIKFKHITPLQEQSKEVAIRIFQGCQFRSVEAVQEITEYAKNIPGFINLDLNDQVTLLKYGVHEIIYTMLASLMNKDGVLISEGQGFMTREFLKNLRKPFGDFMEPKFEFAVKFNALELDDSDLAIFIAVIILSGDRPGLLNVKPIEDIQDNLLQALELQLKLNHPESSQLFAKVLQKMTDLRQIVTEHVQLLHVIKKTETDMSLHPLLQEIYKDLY

Molecular target: FLAG-tagged PPARγ (UniProt P37238)
Experiment: co-IP; 293T cells cotransfected with WT p53 (HIS-tagged) or p53S (MYC-tagged), HA-PGC–1α and FLAG-PPARγ; lysates in TEB150 buffer (50 mM HEPES pH 7.3, 150 mM NaCl, 2 mM MgCl2, 5 mM EGTA, 0.5% Triton X-100, 10% glycerol) for 6 h at 4 °C with anti-Tag or anti-Flag antibody cross-linked to agarose beads; immunoblot

- binding: binds
B1: HA-tagged PGC–1α (protein, UniProt O70343 1-797)
chain: MAWDMCSQDSVWSDIECAALVGEDQPLCPDLPELDLSELDVNDLDTDSFLGGLKWCSDQSEIISNQYNNEPANIFEKIDEENEANLLAVLTETLDSLPVDEDGLPSFDALTDGAVTTDNEASPSSMPDGTPPPQEAEEPSLLKKLLLAPANTQLSYNECSGLSTQNHAANHTHRIRTNPAIVKTENSWSNKAKSICQQQKPQRRPCSELLKYLTTNDDPPHTKPTENRNSSRDKCASKKKSHTQPQSQHAQAKPTTLSLPLTPESPNDPKGSPFENKTIERTLSVELSGTAGLTPPTTPPHKANQDNPFKASPKLKPSCKTVVPPPTKRARYSECSGTQGSHSTKKGPEQSELYAQLSKSSGLSRGHEERKTKRPSLRLFGDHDYCQSLNSKTDILINISQELQDSRQLDFKDASCDWQGHICSSTDSGQCYLRETLEASKQVSPCSTRKQLQDQEIRAELNKHFGHPCQAVFDDKSDKTSELRDGDFSNEQFSKLPVFINSGLAMDGLFDDSEDESDKLSYPWDGTQPYSLFDVSPSCSSFNSPCRDSVSPPKSLFSQRPQRMRSRSRSFSRHRSCSRSPYSRSRSRSPGSRSSSRSCYYYESSHYRHRTHRNSPLYVRSRSRSPYSRRPRYDSYEAYEHERLKRDEYRKEHEKRESERAKQRERQKQKAIEERRVIYVGKIRPDTTRTELRDRFEVFGEIEECTVNLRDDGDSYGFITYRYTCDAFAALENGYTLRRSNETDFELYFCGRKQFFKSNYADLDTNSDDFDPASTKSKYDSLDFDSLLKEAQRSLRR
